Measured values published in the supplement of paper PMC4604168 (melanoma cell lines).
Some of the results follow. Repeats are few or missing, and single values can be far off.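 The apoptosis fraction was the count of cleaved-PARP antibody-stained nuclei relative to all DNA-stained nuclei, imaged in 1,536-well plates. Screening doses were set so most cells survived, and baseline and induced cleaved-PARP levels vary greatly across cell lines.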

Legend:
Assay in all cases: cleaved PARP positive nuclei fraction relative to DMSO control; melanoma cells; higher = more apoptosis
Details in all cases: library dose: low library concentration; 72 h
CBRC034 = tested on: CBRC034 (line from a melanoma biopsy)
COLO792 = tested on: COLO792
COLO800 = tested on: COLO800
COLO829 = tested on: COLO829
G361 = tested on: G361
IPC-298 = tested on: IPC-298
IST-MEL1 = tested on: IST-MEL1
LB2518-MEL = tested on: LB2518-MEL
LOXIMVI = tested on: LOXIMVI

| SMILES | cleaved PARP positive nuclei fraction (CBRC034) [%] | cleaved PARP positive nuclei fraction (COLO792) [%] | cleaved PARP positive nuclei fraction (COLO800) [%] | cleaved PARP positive nuclei fraction (COLO829) [%] | cleaved PARP positive nuclei fraction (G361) [%] | cleaved PARP positive nuclei fraction (IPC-298) [%] | cleaved PARP positive nuclei fraction (IST-MEL1) [%] | cleaved PARP positive nuclei fraction (LB2518-MEL) [%] | cleaved PARP positive nuclei fraction (LOXIMVI) [%] |
| --- | --- | --- | --- | --- | --- | --- | --- | --- | --- |
| COc1cc2c(Oc3ccc4[nH]c(C)cc4c3F)ncnc2cc1OCCCN1CCCC1 [cediranib] + CCc1ccc(CCOc2ccc(CC3SC(=O)NC3=O)cc2)nc1 [pioglitazone] (first compound 0.4 µM, partner dose 2 µM) | 166 | 111 | 119 | 62.8 | 93.2 | 64.3 | 84.6 | 169 | 29.8 |
| N#Cc1c(O)c2c(-c3ccc(-c4ccccc4O)cc3)csc2[nH]c1=O + COc1ccc2c(c1)CCC1C2CCC2(C)C(NCCCCCCN3C(=O)C=CC3=O)CCC12 [U73122] (first compound 2 µM, partner dose 0.4 µM) | 120 | 108 | 126 | 99.5 | 58.3 | 79.5 | 28.2 | 138 | 48.4 |
| N#Cc1c(O)c2c(-c3ccc(-c4ccccc4O)cc3)csc2[nH]c1=O + c1cc(-c2cnn3cc(-c4ccc(OCCN5CCCCC5)cc4)cnc23)ccn1 [Dorsomorphin] (first compound 2 µM, partner dose 0.4 µM) | 46.8 | 74 | 173 | 201 | 120 | 106 | 133 | 135 | 31.1 |
| CN(C)S(=O)(=O)c1ccc2c(c1)/C(=C/c1cc3c([nH]1)CCCC3)C(=O)N2 + COC(=O)c1sccc1S(=O)(=O)Nc1ccc(Nc2ccccc2)cc1OC [GSK0660] (first compound 0.4 µM, partner dose 1 µM) | 97.5 | 124 | 69.3 | 111 | 100 | 109 | 91.9 | 78.5 | 29.2 |
| CN(C)S(=O)(=O)c1ccc2c(c1)/C(=C/c1cc3c([nH]1)CCCC3)C(=O)N2 + O=c1cc(-c2cccc3c2Sc2ccccc2S3)oc(N2CCOCC2)c1 [KU55933] (first compound 0.4 µM, partner dose 1 µM) | 189 | 94.4 | 120 | 87.3 | 37.4 | 42.3 | 87.7 | 284 | 50.8 |
| COc1ccc(-c2ccc3c(N4CCOCC4)nc(N4C[C@@H](C)O[C@@H](C)C4)nc3n2)cc1CO + COc1ccc(COc2ccc(Cc3cnc(N)nc3N)cc2OC)cc1 [GW2580] (first compound 0.02 µM, partner dose 1 µM) | 91.9 | 50.8 | 76.5 | 85.6 | 90.6 | 69.6 | 127 | 164 | 107 |
| N#Cc1c(O)c2c(-c3ccc(-c4ccccc4O)cc3)csc2[nH]c1=O + O=c1cc(-c2cccc3c2Sc2ccccc2S3)oc(N2CCOCC2)c1 [KU55933] (first compound 2 µM, partner dose 1 µM) | 64.9 | 77 | 159 | 95.4 | 80.2 | 35.9 | 88 | 78.2 | 51.7 |
| Oc1nc(-c2ccc(C(F)(F)F)cc2)nc2c1CSCC2 + c1cc(-c2cnn3cc(-c4ccc(OCCN5CCCCC5)cc4)cnc23)ccn1 [Dorsomorphin] (first compound 2 µM, partner dose 0.4 µM) | 82.7 | 102 | 78.2 | 65.4 | 68.3 | 42.7 | 137 | 94.3 | 49.9 |
| O=C1NC(=O)/C(=C/c2ccc(-c3ccc(F)cc3O)o2)S1 + CC(C)CCN1c2nc(Nc3cc(F)c(O)c(F)c3)ncc2N(C)C(=O)C1C [BID1870] (first compound 1 µM, partner dose 0.2 µM) | 67.6 | 39.6 | 103 | 86.8 | 130 | 79.3 | 55.9 | 79.8 | 27.9 |
| Cc1cc([N+](=O)[O-])ccc1NS(=O)(=O)c1cc(Cl)ccc1Cl + Oc1nc(-c2ccc(C(F)(F)F)cc2)nc2c1CSCC2 [XAV939] (first compound 1 µM, partner dose 2 µM) | 200 | 87.4 | 130 | 83.8 | 317 | 146 | 102 | 82.2 | 153 |
| CN(C)S(=O)(=O)c1ccc2c(c1)/C(=C/c1cc3c([nH]1)CCCC3)C(=O)N2 + O=C(Nc1ccccc1)c1cc([N+](=O)[O-])ccc1Cl [GW9662] (first compound 0.4 µM, partner dose 2 µM) | 49.6 | 71.5 | 103 | 180 | 207 | 58.4 | 85.5 | 106 | 56.9 |
| CN(NC(=O)CC(=O)NN(C)C(=S)c1ccccc1)C(=S)c1ccccc1 + O=C1NC(=O)/C(=C/c2ccc(-c3ccc(F)cc3O)o2)S1 [AS252424] (first compound 0.006 µM, partner dose 1 µM) | 328 | 104 | 126 | 148 | 45.1 | 42.2 | 190 | 303 | 1680 |
| O=S(=O)(c1ccccc1)N(CC(F)(F)F)c1ccc(C(O)(C(F)(F)F)C(F)(F)F)cc1 + O=C1NC(=O)/C(=C/c2ccc(-c3ccc(F)cc3O)o2)S1 [AS252424] (first compound 1.4 µM, partner dose 1 µM) | 42.2 | 53.7 | 93.1 | 102 | 46 | 45.5 | 60.1 | 161 | 59.5 |
| COc1cc2c(Oc3ccc4[nH]c(C)cc4c3F)ncnc2cc1OCCCN1CCCC1 [cediranib] + N#Cc1c(O)c2c(-c3ccc(-c4ccccc4O)cc3)csc2[nH]c1=O [A769662] (first compound 0.4 µM, partner dose 2 µM) | 101 | 46.6 | 76.8 | 95.1 | 161 | 69.3 | 120 | 102 | 106 |
| CCN(CC)CCCCNc1ncc2cc(-c3cc(OC)cc(OC)c3)c(NC(=O)NC(C)(C)C)nc2n1 + O=C(O)C(=O)Nc1sc2c(c1C(=O)O)CCNC2 [TCS401] (first compound 0.1 µM, partner dose 1.66667 µM) | 27.2 | 124 | 72.8 | 70.5 | 79 | 77.3 | 52.9 | 159 | 99.1 |
| N#Cc1c(O)c2c(-c3ccc(-c4ccccc4O)cc3)csc2[nH]c1=O + CC(C)CCN1c2nc(Nc3cc(F)c(O)c(F)c3)ncc2N(C)C(=O)C1C [BID1870] (first compound 2 µM, partner dose 0.2 µM) | 46.6 | 169 | 92.6 | 45.1 | 85.1 | 106 | 29.1 | 48.6 | 41.5 |
| COc1ccc2c(c1)CCC1C2CCC2(C)C(NCCCCCCN3C(=O)C=CC3=O)CCC12 (stereo not given) + O=C1NC(=O)/C(=C/c2ccc(-c3ccc(F)cc3O)o2)S1 [AS252424] (first compound 0.4 µM, partner dose 1 µM) | 198 | 173 | 137 | 107 | 116 | 86.6 | 47.1 | 72.1 | 39.9 |
| COC(=O)c1sccc1S(=O)(=O)Nc1ccc(Nc2ccccc2)cc1OC + Cc1cc([N+](=O)[O-])ccc1NS(=O)(=O)c1cc(Cl)ccc1Cl [FH535] (first compound 1 µM, partner dose 1 µM) | 142 | 87.6 | 133 | 96.3 | 51.2 | 173 | 68.1 | 69 | 34.4 |
| CCc1ccc(CCOc2ccc(CC3SC(=O)NC3=O)cc2)nc1 (stereo not given) [pioglitazone] + Cc1cc([N+](=O)[O-])ccc1NS(=O)(=O)c1cc(Cl)ccc1Cl [FH535] (first compound 2 µM, partner dose 1 µM) | 362 | 77.1 | 131 | 51 | 145 | 86 | 104 | 190 | 36.4 |
| CN(NC(=O)CC(=O)NN(C)C(=S)c1ccccc1)C(=S)c1ccccc1 + CC(C)CCN1c2nc(Nc3cc(F)c(O)c(F)c3)ncc2N(C)C(=O)C1C [BID1870] (first compound 0.006 µM, partner dose 0.2 µM) | 716 | 233 | 237 | 155 | 362 | 77.4 | 65.7 | 154 | 113 |
| COc1cc2c(Oc3ccc4[nH]c(C)cc4c3F)ncnc2cc1OCCCN1CCCC1 [cediranib] + O=S(=O)(c1ccccc1)N(CC(F)(F)F)c1ccc(C(O)(C(F)(F)F)C(F)(F)F)cc1 [T0901317] (first compound 0.4 µM, partner dose 1.4 µM) | 75 | 59.2 | 127 | 29.2 | 88.1 | 159 | 77.7 | 55.5 | 21.9 |
| O=S(=O)(c1ccccc1)N(CC(F)(F)F)c1ccc(C(O)(C(F)(F)F)C(F)(F)F)cc1 + c1cc(-c2cnn3cc(-c4ccc(OCCN5CCCCC5)cc4)cnc23)ccn1 [Dorsomorphin] (first compound 1.4 µM, partner dose 0.4 µM) | 44.5 | 67.8 | 102 | 76 | 140 | 99.8 | 63.8 | 79.6 | 300 |
| O=C(Nc1ccccc1)c1cc([N+](=O)[O-])ccc1Cl + N#Cc1c(O)c2c(-c3ccc(-c4ccccc4O)cc3)csc2[nH]c1=O [A769662] (first compound 2 µM, partner dose 2 µM) | 46.8 | 92.3 | 101 | 103 | 72.5 | 21.7 | 42 | 77.5 | 83.1 |
| O=C(Nc1ccccc1)c1cc([N+](=O)[O-])ccc1Cl + COC(=O)c1sccc1S(=O)(=O)Nc1ccc(Nc2ccccc2)cc1OC [GSK0660] (first compound 2 µM, partner dose 1 µM) | 81.2 | 98.8 | 56.7 | 150 | 40.8 | 157 | 141 | 162 | 57.2 |
| O=C(Nc1ccccc1)c1cc([N+](=O)[O-])ccc1Cl + COc1ccc2c(c1)CCC1C2CCC2(C)C(NCCCCCCN3C(=O)C=CC3=O)CCC12 [U73122] (first compound 2 µM, partner dose 0.4 µM) | 144 | 143 | 27.8 | 104 | 42.8 | 82.2 | 28.6 | 86.4 | 219 |

Only cleaved PARP positive nuclei fraction (IST-MEL1) [%] and cleaved PARP positive nuclei fraction (COLO829) [%], for some of the entries so far:

| SMILES | cleaved PARP positive nuclei fraction (IST-MEL1) [%] | cleaved PARP positive nuclei fraction (COLO829) [%] |
| --- | --- | --- |
| O=C(Nc1ccccc1)c1cc([N+](=O)[O-])ccc1Cl + COC(=O)c1sccc1S(=O)(=O)Nc1ccc(Nc2ccccc2)cc1OC [GSK0660] (first compound 2 µM, partner dose 1 µM) | 141 | 150 |
| O=C(Nc1ccccc1)c1cc([N+](=O)[O-])ccc1Cl + COc1ccc2c(c1)CCC1C2CCC2(C)C(NCCCCCCN3C(=O)C=CC3=O)CCC12 [U73122] (first compound 2 µM, partner dose 0.4 µM) | 28.6 | 104 |
